Reference: US5032591A, “Pharmaceutical preparations” (Beecham Group p.l.c., priority 1988, dated 1991)

Test system: conscious male spontaneously hypertensive rats (SHR)
Experiment: anti-hypertensive response: area under the control group blood pressure curve (mean arterial blood pressure, indwelling catheter) in conscious male spontaneously hypertensive rats
Assay type: in vivo
Conditions: atenolol 10 mg/kg po, n=10, MAP as % change from pretreatment baseline
Protocol: Mean arterial blood pressures were measured from an indwelling catheter as described by Buckingham 1976 J. Pharm. Pharmac Vol. 28, pp 459-461. 1. Calculation of area under the control group blood pressure curve (AUC). Group mean arterial blood pressure values were calculated as % change from the pretreatment baseline. For each drug treatment group the area under the control group blood pressure curve was calculated using a trapezoidal method. […] Predicted AUC values were arrived at by combining values for each treatment given alone.

CC(C)NCC(O)COc1ccc(CC(N)=O)cc1 (centres unmarked) [Atenolol] was tested, and the “AUC (0-2 h)” value (0-2 h) was 660 and the “AUC (0-4 h)” value (0-4 h) was 2356.
